Values from PubChem BioAssay AID1259405 (NCATS, 2018).

- Test: 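Mouse-designed siRNAs used to find CHO productivity engineering targets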 (primary screen)
- System: Chinese hamster CHO-K1 ovary cells with stable secreted eGFP expression
- Reagents: single siRNA against mouse genes, 0.8 pmol siRNA per well (2 µl of 400 nM stock)
- Time to read-out: 3 days
- Read-out: 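Percent of the per-plate non-targeting control median for intracellular GFP per well by laser scanning cytometry and for cell viability by ATP luminescence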
- Direction: GFP, % of control: higher = more GFP per well, higher productivity; viability (ATP), % of control: higher = more viable cells (more ATP)
- Active means: 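Called active when intracellular GFP, relative to negative control, is at or above 120%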
Shown is one part, drawn at random, of about 50,000 reagents tested. About 4,000 of all reagents (8%) were called active. 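Mouse siRNA library applied to hamster cells; one well for each siRNA.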 The numbers tell different reagents against one gene apart.

target,reagent,"GFP, % of control","viability (ATP), % of control",outcome
Slc35f4 (GeneID 75288),1,159,73.5,active
Slc35f4 (GeneID 75288),2,87.5,77.6,inactive
Slc35f4 (GeneID 75288),3,63.7,53.2,inactive
Icam4 (GeneID 78369),1,24,25.9,inactive
Icam4 (GeneID 78369),2,58.6,58.5,inactive
Icam4 (GeneID 78369),3,67.7,52.3,inactive
Bag3 (GeneID 29810),1,81.5,53.4,inactive
Bag3 (GeneID 29810),2,120,83.6,inactive
Bag3 (GeneID 29810),3,105,103,inactive
Endog (GeneID 13804),1,106,89.4,inactive
Endog (GeneID 13804),2,83.7,95.2,inactive
Endog (GeneID 13804),3,62.8,87.2,inactive
St3gal6 (GeneID 54613),1,55,73.9,inactive
St3gal6 (GeneID 54613),2,121,94.7,active
St3gal6 (GeneID 54613),3,87.9,105,inactive
Fcamr (GeneID 64435),1,69.1,63.3,inactive
Fcamr (GeneID 64435),2,68.3,56.6,inactive
Fcamr (GeneID 64435),3,75.6,64.2,inactive
Nol6 (GeneID 230082),1,77.8,79.1,inactive
Nol6 (GeneID 230082),2,102,82.2,inactive
P2rx4 (GeneID 18438),1,79.9,80.4,inactive
P2rx4 (GeneID 18438),2,64.3,63.1,inactive
P2rx4 (GeneID 18438),3,79.7,89.1,inactive
Arhgap39 (GeneID 223666),1,51.9,49.2,inactive
Arhgap39 (GeneID 223666),2,88.1,93.3,inactive
Arhgap39 (GeneID 223666),3,65,82,inactive
Coq7 (GeneID 12850),1,45.3,41.4,inactive
Coq7 (GeneID 12850),2,102,97.1,inactive
Coq7 (GeneID 12850),3,52,68,inactive
4930429B21Rik (GeneID 67576),1,127,77.2,active
4930429B21Rik (GeneID 67576),2,82,64.9,inactive
4930429B21Rik (GeneID 67576),3,88.5,85.1,inactive
Foxo4 (GeneID 54601),1,159,68.4,active
Foxo4 (GeneID 54601),2,142,65.6,active
Foxo4 (GeneID 54601),3,102,98.2,inactive
Mrpl43 (GeneID 94067),1,118,94.2,inactive
Mrpl43 (GeneID 94067),2,68.2,94.4,inactive
Mrpl43 (GeneID 94067),3,101,90.5,inactive
Snx25 (GeneID 102141),1,115,120,inactive
Snx25 (GeneID 102141),2,137,95.1,active
Snx25 (GeneID 102141),3,80.3,73.4,inactive
Cited1 (GeneID 12705),1,141,83.1,active
Cited1 (GeneID 12705),2,99.1,82.7,inactive
Gzmb (GeneID 14939),1,60.5,138,inactive
Gzmb (GeneID 14939),2,66,78.1,inactive
Gzmb (GeneID 14939),3,59.7,72.3,inactive
Osmr (GeneID 18414),1,104,101,inactive
Osmr (GeneID 18414),2,49.3,73.9,inactive
Osmr (GeneID 18414),3,120,53.4,inactive
Pex39 (GeneID 67101),1,41.3,53,inactive
Pex39 (GeneID 67101),2,55.9,60.3,inactive
Pex39 (GeneID 67101),3,94.7,95.7,inactive

Continued (12 carried over from the part before).
target,reagent,"GFP, % of control","viability (ATP), % of control",outcome
Snx25 (GeneID 102141),3,80.3,73.4,inactive
Cited1 (GeneID 12705),1,141,83.1,active
Cited1 (GeneID 12705),2,99.1,82.7,inactive
Gzmb (GeneID 14939),1,60.5,138,inactive
Gzmb (GeneID 14939),2,66,78.1,inactive
Gzmb (GeneID 14939),3,59.7,72.3,inactive
Osmr (GeneID 18414),1,104,101,inactive
Osmr (GeneID 18414),2,49.3,73.9,inactive
Osmr (GeneID 18414),3,120,53.4,inactive
Pex39 (GeneID 67101),1,41.3,53,inactive
Pex39 (GeneID 67101),2,55.9,60.3,inactive
Pex39 (GeneID 67101),3,94.7,95.7,inactive
Ufm1 (GeneID 67890),1,69.1,54.1,inactive
Ufm1 (GeneID 67890),2,58.1,74.4,inactive
Ufm1 (GeneID 67890),3,62.6,68.9,inactive
Fst (GeneID 14313),1,43.3,67.1,inactive
Fst (GeneID 14313),2,80.2,63.3,inactive
Fst (GeneID 14313),3,91.1,54.1,inactive
Arid5b (GeneID 71371),1,117,101,inactive
Arid5b (GeneID 71371),2,47.3,61.1,inactive
Arid5b (GeneID 71371),3,68.1,81.9,inactive
Kcnj11 (GeneID 16514),1,79.4,86.8,inactive
Kcnj11 (GeneID 16514),2,78.4,44.4,inactive
Kcnj11 (GeneID 16514),3,105,98.5,inactive
Gm4861 (GeneID 229862),1,91.5,80.3,inactive
Gm4861 (GeneID 229862),2,119,125,inactive
Gm4861 (GeneID 229862),3,86.8,102,inactive
Adam2 (GeneID 11495),1,70.1,44.2,inactive
Adam2 (GeneID 11495),2,148,74,active
Adam2 (GeneID 11495),3,103,71.7,inactive
Cyth4 (GeneID 72318),1,92,62.3,inactive
Cyth4 (GeneID 72318),2,89.3,108,inactive
Cyth4 (GeneID 72318),3,79.6,83.9,inactive
G0s2 (GeneID 14373),1,87.9,68.1,inactive
G0s2 (GeneID 14373),2,111,88.5,inactive
G0s2 (GeneID 14373),3,75.2,76,inactive
Gnpda2 (GeneID 67980),1,85.8,79.4,inactive
Gnpda2 (GeneID 67980),2,98,79,inactive
Gnpda2 (GeneID 67980),3,81.5,66.8,inactive
Nemp2 (GeneID 227094),1,55.9,52,inactive
Nemp2 (GeneID 227094),2,116,117,inactive
Nemp2 (GeneID 227094),3,134,113,active
Pglyrp4 (GeneID 384997),1,89.2,108,inactive
Pglyrp4 (GeneID 384997),2,12.5,21.7,inactive
Pglyrp4 (GeneID 384997),3,36.3,43.7,inactive
